From the supplement of paper PMC9433722
Where a name gives a salt, the structure may show the parent alone. Some of the results follow. Most values come without repeats; read them as rough.

Assays:
Saos-2 = assay: cell viability (CCK-8) relative to DMSO control (% of control); higher = less cytotoxic; settings: 10 µM; 48 h
U2OS = assay: as above; settings: 10 µM; 48 h

Structure (SMILES) | cell viability (Saos-2) | cell viability (U2OS)
CN1CCC(=C2c3ccccc3CC(=O)c3sccc32)CC1 [Ketotifen Fumarate] | 65.6 | 106
OC[C@@H](O)[C@@H](O)[C@H](O)[C@H](O)CO [Mannitol] | 108 | 92.3
NC(=O)N1c2ccccc2CC(=O)c2ccccc21 [Oxcarbazepine] | 66.9 | 94.6
CC(C)(C)NCC(O)COc1cccc2c1CC(O)C(O)C2 (configuration not stated) [Nadolol] | 112 | 94.4
NS(=O)(=O)c1cc2c(cc1Cl)N=CNS2(=O)=O [Chlorothiazide] | 102 | 80.3
CO/N=C(\C(=O)N[C@@H]1C(=O)N2C(C(=O)OCOC(=O)C(C)(C)C)=C(/C=C\c3scnc3C)CS[C@H]12)c1csc(N)n1 [Cefditoren Pivoxil] | 114 | 65.8
C=C(CC)C(=O)c1ccc(OCC(=O)O)c(Cl)c1Cl [Ethacrynic Acid] | 53.7 | 114
CN[C@@H]1[C@H](O)[C@H](NC)[C@H]2O[C@@]3(O)C(=O)C[C@@H](C)O[C@H]3O[C@@H]2[C@H]1O [Spectinomycin . dihydrochloride] | 61 | 81.1
CN(C)CCC(c1ccc(Cl)cc1)c1ccccn1 (configuration not stated) [Chlorpheniramine Maleate] | 69.2 | 97
CCN(CC)CCNC(=O)c1cc(Cl)c(N)cc1OC [Metoclopramide·HCl] | 64.4 | 108
CC(=O)N1CCN(c2ccc(OCC3COC(Cn4ccnc4)(c4ccc(Cl)cc4Cl)O3)cc2)CC1 (configuration not stated) [Ketoconazole] | 71.3 | 122
Fc1ccc([C@@H]2CCNC[C@H]2COc2ccc3c(c2)OCO3)cc1 [Paroxetine·HCl] | 54.6 | 23
CN1CC2c3ccccc3Oc3ccc(Cl)cc3C2C1 (configuration not stated) [Asenapine Maleate] | 89 | 95.5
Nc1nc(O)c2ncn(CCC(CO)CO)c2n1 [Penciclovir] | 67.3 | 80.6
C#C[C@]1(O)CC[C@H]2[C@@H]3CCC4=CCCC[C@@H]4[C@H]3C(=C)C[C@@]21CC [Desogestrel] | 120 | 94.4
COc1cc(C(=O)NS(=O)(=O)c2ccccc2C)ccc1Cc1cn(C)c2ccc(NC(=O)OC3CCCC3)cc12 [Zafirlukast] | 67.3 | 103
CN(C)C(=N)NC(=N)N [Metformin] | 54 | 110
CN1CCC[C@@H]1CCO[C@](C)(c1ccccc1)c1ccc(Cl)cc1 [Clemastine Fumarate] | 61.2 | 90
CCCCc1nc(Cl)c(CO)n1Cc1ccc(-c2ccccc2-c2nnn[nH]2)cc1 [Losartan Potassium] | 69.6 | 53.8

13 of the compounds above, as tab-separated lines:
Structure (SMILES)	cell viability (Saos-2)	cell viability (U2OS)
CN1CCC(=C2c3ccccc3CC(=O)c3sccc32)CC1 [Ketotifen Fumarate]	65.6	106
OC[C@@H](O)[C@@H](O)[C@H](O)[C@H](O)CO [Mannitol]	108	92.3
CC(C)(C)NCC(O)COc1cccc2c1CC(O)C(O)C2 (configuration not stated) [Nadolol]	112	94.4
NS(=O)(=O)c1cc2c(cc1Cl)N=CNS2(=O)=O [Chlorothiazide]	102	80.3
C=C(CC)C(=O)c1ccc(OCC(=O)O)c(Cl)c1Cl [Ethacrynic Acid]	53.7	114
CN[C@@H]1[C@H](O)[C@H](NC)[C@H]2O[C@@]3(O)C(=O)C[C@@H](C)O[C@H]3O[C@@H]2[C@H]1O [Spectinomycin . dihydrochloride]	61	81.1
CN(C)CCC(c1ccc(Cl)cc1)c1ccccn1 (configuration not stated) [Chlorpheniramine Maleate]	69.2	97
CCN(CC)CCNC(=O)c1cc(Cl)c(N)cc1OC [Metoclopramide·HCl]	64.4	108
CC(=O)N1CCN(c2ccc(OCC3COC(Cn4ccnc4)(c4ccc(Cl)cc4Cl)O3)cc2)CC1 (configuration not stated) [Ketoconazole]	71.3	122
Fc1ccc([C@@H]2CCNC[C@H]2COc2ccc3c(c2)OCO3)cc1 [Paroxetine·HCl]	54.6	23
Nc1nc(O)c2ncn(CCC(CO)CO)c2n1 [Penciclovir]	67.3	80.6
C#C[C@]1(O)CC[C@H]2[C@@H]3CCC4=CCCC[C@@H]4[C@H]3C(=C)C[C@@]21CC [Desogestrel]	120	94.4
CN1CCC[C@@H]1CCO[C@](C)(c1ccccc1)c1ccc(Cl)cc1 [Clemastine Fumarate]	61.2	90

(further entries)

Structure (SMILES) | cell viability (Saos-2) | cell viability (U2OS)
CO/N=C(\C(=O)N[C@@H]1C(=O)N2C(C(=O)O)=C(COC(C)=O)CS[C@H]12)c1csc(N)n1 [Cefotaxime Acid] | 67.3 | 92.4
CS(=O)(=O)CCNCc1ccc(-c2ccc3ncnc(Nc4ccc(OCc5cccc(F)c5)c(Cl)c4)c3c2)o1 [Lapatinib Ditosylate] | 60.8 | 82.9
C[C@@H]1C[C@H]2[C@@H]3CCC4=CC(=O)C=C[C@]4(C)[C@@]3(Cl)[C@@H](O)C[C@]2(C)[C@@]1(OC(=O)c1ccco1)C(=O)CCl [Mometasone Furoate] | 115 | 129
CC(C)N1CCN(c2ccc(OCC3COC(Cn4cncn4)(c4ccc(Cl)cc4Cl)O3)cc2)CC1 (configuration not stated) [Terconazole] | 103 | 93.1
Clc1ccc2nsnc2c1NC1=NCCN1 [Tizanidine·HCl] | 58.2 | 114
O=C(O)CCCc1ccccc1 [Sodium Phenylbutyrate] | 61.2 | 111
CO[C@@]12[C@H](COC(N)=O)C3=C(C(=O)C(C)=C(N)C3=O)N1C[C@@H]1N[C@@H]12 [Mitomycin C] | 71.4 | 114
O=NN(CCCl)C(=O)NC1CCCCC1 [Lomustine] | 59.4 | 126
CC1(C)O[C@@H]2C[C@H]3[C@@H]4C[C@H](F)C5=CC(=O)CC[C@]5(C)[C@H]4[C@@H](O)C[C@]3(C)[C@]2(C(=O)CO)O1 [Flurandrenolide] | 108 | 101
CN(C)c1ccc(O)c2c1C[C@H]1C[C@H]3[C@H](N(C)C)C(O)=C(C(N)=O)C(=O)[C@@]3(O)C(O)=C1C2=O [Minocycline] | 70.7 | 97.9
CCCCCOC(=O)Nc1nc(=O)n([C@@H]2O[C@H](C)[C@@H](O)[C@H]2O)cc1F [Capecitabine] | 67.8 | 108
OC(CCN1CCCCC1)(c1ccccc1)C1CC2C=CC1C2 (configuration not stated) [Biperiden·HCl] | 116 | 110
CCN[C@H]1C[C@H](C)S(=O)(=O)c2sc(S(N)(=O)=O)cc21 [Dorzolamide·HCl] | 58.5 | 110
Cc1cc(C)cc(OCC2CNC(=O)O2)c1 (configuration not stated) [Metaxalone] | 98.1 | 104
Cc1nnc(C(C)C)n1C1C[C@H]2CC[C@@H](C1)N2CC[C@H](NC(=O)C1CCC(F)(F)CC1)c1ccccc1 (stereo in doubt) [Maraviroc] | 105 | 91.8
Cc1cccc(C)c1OCC(C)N (configuration not stated) [Mexiletine·HCl] | 103 | 107
COc1cc(C)c(/C=C/C(C)=C/C=C/C(C)=C/C(=O)O)c(C)c1C [Acitretin] | 63.6 | 105
C=CC(N)CCC(=O)O (configuration not stated) [Vigabatrin] | 89 | 86.6
C[C@H]1COc2c(N3CCN(C)CC3)c(F)cc3c(=O)c(C(=O)O)cn1c23 [Levofloxacin . hydrochloride] | 69.8 | 97.4

Ordered by molar mass (falling): three of the compounds above.
Structure (SMILES) | cell viability (Saos-2) | cell viability (U2OS)
CC(C)N1CCN(c2ccc(OCC3COC(Cn4cncn4)(c4ccc(Cl)cc4Cl)O3)cc2)CC1 (configuration not stated) [Terconazole] | 103 | 93.1
CN1CCC[C@@H]1CCO[C@](C)(c1ccccc1)c1ccc(Cl)cc1 [Clemastine Fumarate] | 61.2 | 90
CN(C)CCC(c1ccc(Cl)cc1)c1ccccn1 (configuration not stated) [Chlorpheniramine Maleate] | 69.2 | 97

(list continues)

Structure (SMILES) | cell viability (Saos-2) | cell viability (U2OS)
CCCCC[C@H](O)/C=C/[C@H]1[C@H](O)CC(=O)[C@@H]1C/C=C\CCCC(=O)O [Prostaglandin E2] | 55.3 | 115
C[C@H]1C[C@H]2[C@@H]3CCC4=CC(=O)C=C[C@]4(C)[C@@]3(F)[C@@H](O)C[C@]2(C)[C@@]1(O)C(=O)CO [Betamethasone] | 73.4 | 105
COc1ccc2c(c1)c(CC(=O)O)c(C)n2C(=O)c1ccc(Cl)cc1 [Indomethacin] | 56.6 | 108
C[C@]12CCC(=O)C=C1[C@@H]1C[C@@H]1[C@H]1[C@@H]3[C@@H]4C[C@@H]4[C@@]4(CCC(=O)O4)[C@@]3(C)CC[C@@H]12 [Drospirenone] | 118 | 86.6
C[C@@H]1C[C@H]2[C@@H]3CCC4=CC(=O)C=C[C@]4(C)[C@@]3(F)[C@@H](O)C[C@]2(C)[C@H]1C(=O)CO [Desoximetasone] | 112 | 95.3
Nc1nc(N)c2nc(-c3ccccc3)c(N)nc2n1 [Triamterene] | 67.5 | 72.1
COc1ccc(CC(C)NCC(O)c2ccc(O)c(NC=O)c2)cc1 (configuration not stated) [Formoterol] | 104 | 102
O=C(O)Cc1ccccc1Nc1c(Cl)cccc1Cl [Diclofenac sodium salt] | 70 | 95.6
CC(C)c1c(C(=O)Nc2ccccc2)c(-c2ccccc2)c(-c2ccc(F)cc2)n1CC[C@@H](O)C[C@@H](O)CC(=O)O [Atorvastatin hemicalcium salt] | 75.2 | 82.3
O=c1[nH]c(=O)n([C@H]2C[C@H](O)[C@@H](CO)O2)cc1F [Floxuridine] | 38.7 | 43.2
CO[C@H]1/C=C/O[C@@]2(C)Oc3c(C)c(O)c4c(O)c(c(/C=N/N5CCN(C6CCCC6)CC5)c(O)c4c3C2=O)NC(=O)/C(C)=C\C=C\[C@H](C)[C@H](O)[C@@H](C)[C@@H](O)[C@@H](C)[C@H](OC(C)=O)[C@@H]1C [Rifapentine] | 114 | 98.8
CC(COc1ccccc1)N(CCCl)Cc1ccccc1 (configuration not stated) [Phenoxybenzamine . hydrochloride] | 68.4 | 115
Nc1nc(NC2CC2)c2ncn([C@H]3C=C[C@@H](CO)C3)c2n1 [Abacavir Sulfate] | 93.9 | 82.6
Cc1ccc(C(=O)c2ccc(CC(=O)O)n2C)cc1 [Tolmetin sodium dihydrate] | 66.5 | 98.3
CCC(=O)NCC[C@@H]1CCc2ccc3c(c21)CCO3 [Ramelteon] | 108 | 101
COCC1=C(C(=O)OC(C)OC(=O)OC(C)C)N2C(=O)[C@@H](NC(=O)/C(=N\OC)c3csc(N)n3)[C@H]2SC1 (some centres not stated) [Cefpodoxime Proxetil] | 115 | 92.1
Cn1c(=O)c2c(ncn2CC(O)CO)n(C)c1=O (configuration not stated) [Dyphylline] | 118 | 56.1
COc1ccnc(C[S+]([O-])c2nc3cc(OC(F)F)ccc3[nH]2)c1OC (configuration not stated) [Pantoprazole] | 66.5 | 87.5
